Measured values from publication PMC9917400.
Results are given in words; binding and its absence hold for the method and conditions named. In cells and extracts the contact can be indirect. Some results given as binding are weak or reduced against the parent protein; the word gives no strength.

The chains behind the UniProt entries cited, without tags or fusion partners. Residues count along the entry.
UniProt P17302: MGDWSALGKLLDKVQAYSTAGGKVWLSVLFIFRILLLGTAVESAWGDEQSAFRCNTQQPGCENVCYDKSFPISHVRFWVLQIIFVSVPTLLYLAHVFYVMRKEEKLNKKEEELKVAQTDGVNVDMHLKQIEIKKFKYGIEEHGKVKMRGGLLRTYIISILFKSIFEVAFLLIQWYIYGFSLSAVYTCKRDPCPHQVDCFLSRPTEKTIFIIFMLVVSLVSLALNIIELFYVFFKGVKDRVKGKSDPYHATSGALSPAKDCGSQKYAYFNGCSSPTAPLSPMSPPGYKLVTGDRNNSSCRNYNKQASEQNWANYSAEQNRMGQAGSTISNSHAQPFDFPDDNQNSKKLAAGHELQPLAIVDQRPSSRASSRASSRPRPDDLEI
UniProt P63165, residues 1-97: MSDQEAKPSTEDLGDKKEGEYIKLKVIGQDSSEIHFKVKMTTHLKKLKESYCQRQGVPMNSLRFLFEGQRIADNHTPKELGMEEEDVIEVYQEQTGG

Key:
[1] = biological target: connexin 43 (Cx43), overexpressed in MDA-MB-231 cells (MDA-Cx43D) (UniProt P17302); experiment: proximity ligation; Duolink in situ proximity ligation assay in MDA-Cx43D cells on glass coverslips, fixed and permeabilized in ice-cold methanol; antibodies against SUMO-1, SUMO-2/3, Ub, Cx43 and URM-1
[2] = biological target: connexin 43 (Cx43), overexpressed in MDA-MB-231 cells (MDA-Cx43D) (UniProt P17302); experiment: co-IP; MDA-Cx43D cells, 2 or 24 h after PMA (100 ng/mL); washed in PBS with 10 mM NEM, lysed at pH 8 in 2% SDS, 50 mM Tris, diluted 10-fold in IP buffer (50 mM Tris-HCl pH 8, 200 mM NaCl, 0.1 mM EDTA, 0.5% NP-40, 10% glycerol); goat anti-human Cx43 (C-20) 12 h at 4 °C, protein A-agarose; Western blot

binding [1]: binds
binding [2]: binds
Substance: small ubiquitin-like modifier-1 (SUMO-1) (from UniProt P63165 1-97)
